The data set can be described thus: general procedure: solution-phase peptide synthesis; TBTU/NMM.

Square brackets hold non-standard residues; d marks the D form. * marks the point of attachment. Boc = CC(C)(C)OC(=O)*; OBn = c1ccc(CO*)cc1

“Boc2-Tyr-D-Ala-Phe-D-Ala-Tyr-Pro-Ser(Bzl)-NH2” registered a step yield (coupling step) of 95%. The same measure, in the same setting: to Boc-Y[dA]F[dA]-OBn belongs 95%. As for “Cyclo-[L-Lys(H-Tyr-D-Ala-Phe-D-Ala-Tyr-Pro-Ser)-L-Glu(L-Trp-NH2)]”, the step yield runs as follows: (coupling step) 95%; (late stage modification step) 82%. The substance “TFA. H-Tyr-D-Ala-Phe-D-Ala-Tyr-Pro-Ser(Bzl)-NHMe” had a step yield (late stage modification step) of 92%.

These data come from paper PMC12429696 (International Journal of Molecular Sciences, 2025).
